Experimental data: PubChem BioAssay AID1159578 (Peter MacCallum Cancer Centre, 2015)
Shown is a random part of about 18,000 deposited reagents. About 1,030 of them (5.7%) were called active. 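Inactive calls also include pools with fewer than 3300 nuclei, whose migration was not assessed.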 Raw values are not corrected between plates. Unmarked entries are inactive. No sequences are given here.

Test: 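siRNA pools altering how lymphatic endothelial cells close a scratch wound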 (primary screen)
Cells: human lymphatic endothelial cells
Reagent: siRNA pool against human genes, 40 nM
Timing: 48 h after transfection
Detection: 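Cells stained with dye and imaged after a scratch; covered wound area and nuclei counted, duplicates averaged, migration set against mock wells and turned into a robust z-score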
Direction: migration robust z-score: higher = faster migration into the scratch; migration relative to mock: higher = more scratch area covered than mock; nuclei per well: higher = more cells in the well
Call rule: 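Migration changed when robust z exceeds 2 or falls below -2 and mean nuclei number is at least 3300; otherwise not called changed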
Meaning of the calls: active = migration changed; inactive = no migration change, or too few cells

The first 4 entries as a preview:
no.	target	PubChem SID	migration robust z-score	migration class with cell-count check	migration relative to mock	nuclei per well, duplicate mean
1	SLC5A11	SID255362317	-1.17	migration z between -2 and 2; enough cells	0.58	4020
2	TMED1 (transmembrane p24 trafficking protein 1)	SID255355527	0.24	migration z between -2 and 2; enough cells	0.85	6453
3	CDH11 (cadherin 11)	SID255348830	-0.3	migration z between -2 and 2; enough cells	0.8	5098
4	SPATA31H1 (SPATA31 subfamily H member 1)	SID255361253	-0.52	migration z between -2 and 2; enough cells	0.75	5496

The list itself, from the start:
no.	target	PubChem SID	migration robust z-score	migration class with cell-count check	migration relative to mock	nuclei per well, duplicate mean
1	SLC5A11	SID255362317	-1.17	migration z between -2 and 2; enough cells	0.58	4020
2	TMED1 (transmembrane p24 trafficking protein 1)	SID255355527	0.24	migration z between -2 and 2; enough cells	0.85	6453
3	CDH11 (cadherin 11)	SID255348830	-0.3	migration z between -2 and 2; enough cells	0.8	5098
4	SPATA31H1 (SPATA31 subfamily H member 1)	SID255361253	-0.52	migration z between -2 and 2; enough cells	0.75	5496
5	ARHGDIG (Rho GDP dissociation inhibitor gamma)	SID255348396	-1.62	migration z between -2 and 2; enough cells	0.46	5220
6	CTBP1-DT (CTBP1 divergent transcript)	SID255361976	-1.12	migration z between -2 and 2; enough cells	0.6	4652
7	CHD7 (chromodomain helicase DNA binding protein 7)	SID255358740	1.32	migration z between -2 and 2; enough cells	1.06	5656
8	CAMKK2 (calcium/calmodulin dependent protein kinase kinase 2)	SID255355254	-0.24	migration z between -2 and 2; enough cells	0.76	7957
9	NDRG2 (NDRG family member 2)	SID255359386	-1.35	migration z between -2 and 2; enough cells	0.55	6020
10	COA3 (cytochrome c oxidase assembly factor 3)	SID255357076	1.21	migration z between -2 and 2; enough cells	1.2	5402
11	ZNF565 (zinc finger protein 565)	SID255363352	0.11	migration z between -2 and 2; enough cells	0.92	5515
12	CCDC117 (coiled-coil domain containing 117)	SID255363446	-0.22	migration z between -2 and 2; enough cells	0.83	3865
13	OR2A5 (olfactory receptor family 2 subfamily A member 5)	SID255365711	-1.32	migration z between -2 and 2; enough cells	0.55	7322
14	TGM5 (transglutaminase 5)	SID255354198	0.13	migration z between -2 and 2; enough cells	0.83	4682
15	ZXDA (zinc finger X-linked duplicated A)	SID255353297	-1.14	migration z between -2 and 2; enough cells	0.59	5109
16	MEIS1 (Meis homeobox 1)	SID255350928	0.31	migration z between -2 and 2; enough cells	0.86	3808
17	STAT5B (signal transducer and activator of transcription 5B)	SID255352666	0.94	migration z between -2 and 2; enough cells	0.98	6330
18	NOS1AP (nitric oxide synthase 1 adaptor protein)	SID255354499	0.08	migration z between -2 and 2; enough cells	0.9	4854
19	DCAF17 (DDB1 and CUL4 associated factor 17)	SID255360644	0.22	migration z between -2 and 2; enough cells	0.94	6276
20	MCCC2 (methylcrotonyl-CoA carboxylase subunit 2)	SID255359818	0.55	migration z between -2 and 2; enough cells	0.91	5516
21	COL20A1 (collagen type XX alpha 1 chain)	SID255359521	-0.94	migration z between -2 and 2; enough cells	0.64	5674
22	OR51S1 (olfactory receptor family 51 subfamily S member 1)	SID255362477	-0.69	migration z between -2 and 2; enough cells	0.7	6279
23	KCNN2 (potassium calcium-activated channel subfamily N member 2)	SID255350627	-0.26	migration z between -2 and 2; enough cells	0.76	5298
24	KRTAP5-2 (keratin associated protein 5-2)	SID255365882	0.45	migration z between -2 and 2; enough cells	1	6244
25	CFAP184 (cilia and flagella associated protein 184)	SID255364560	0.74	migration z between -2 and 2; enough cells	1.08	5793
26	ABCB1 (ATP binding cassette subfamily B member 1)	SID255351547	-0.34	migration z between -2 and 2; enough cells	0.74	4882
27	OR4C46 (olfactory receptor family 4 subfamily C member 46)	SID255362481	0.26	migration z between -2 and 2; enough cells	0.96	5296
28	PLEKHA3 (pleckstrin homology domain containing A3)	SID255360115	-0.01	migration z between -2 and 2; enough cells	0.88	6018
29	INPP4A (inositol polyphosphate-4-phosphatase type I A)	SID255350506	-0.08	migration z between -2 and 2; enough cells	0.79	6146
30	RNF151 (ring finger protein 151)	SID255363276	-1.4	migration z between -2 and 2; enough cells	0.53	3891
31	CCDC186 (coiled-coil domain containing 186)	SID255358400	-0.21	migration z between -2 and 2; enough cells	0.83	6325
32	SUOX (sulfite oxidase)	SID255352695	-1.6	migration z between -2 and 2; enough cells	0.5	4600
33	IQSEC1 (IQ motif and Sec7 domain ArfGEF 1)	SID255354668	1.1	migration z between -2 and 2; enough cells	1.17	4708
34	ZIK1 (zinc finger protein interacting with K protein 1)	SID255364759	-1.25	migration z between -2 and 2; enough cells	0.56	5626
35	CCDC33 (coiled-coil domain containing 33)	SID255360659	-0.12	migration z between -2 and 2; enough cells	0.86	6224
36	TCEAL5 (transcription elongation factor A like 5)	SID255365094	-0.62	migration z between -2 and 2; enough cells	0.73	5954
37	PDE1B (phosphodiesterase 1B)	SID255351479	0.2	migration z between -2 and 2; enough cells	0.84	6386
38	GTF3C3 (general transcription factor IIIC subunit 3)	SID255354195	-0.6	migration z between -2 and 2; enough cells	0.69	4486
39	RABL2B (RAB, member of RAS oncogene family like 2B)	SID255355640	-1.38	migration z between -2 and 2; enough cells	0.54	5225
40	MTOR (mechanistic target of rapamycin kinase)	SID255349751	-1.48	migration z between -2 and 2; enough cells	0.52	4758
41	CDK13 (cyclin dependent kinase 13)	SID255353684	-4.41 (active)	migration z below -2; enough cells	-0.04	3479
42	LINGO4 (leucine rich repeat and Ig domain containing 4)	SID255365034	0.89	migration z between -2 and 2; enough cells	1.12	6144
43	FGD1 (FYVE, RhoGEF and PH domain containing 1)	SID255349665	-0.36	migration z between -2 and 2; enough cells	0.8	6356
44	KIR2DS3	SID255350647	1.45	migration z between -2 and 2; enough cells	1.26	5756
45	DCAF13 (DDB1 and CUL4 associated factor 13)	SID255356525	-0.5	migration z between -2 and 2; enough cells	0.76	6472
46	TKTL2 (transketolase like 2)	SID255361184	-1.17	migration z between -2 and 2; enough cells	0.58	6101
47	EFHD1 (EF-hand domain family member D1)	SID255360740	1.33	migration z between -2 and 2; enough cells	1.23	6609
48	ZNF512 (zinc finger protein 512)	SID255361371	0.69	migration z between -2 and 2; enough cells	1.06	6028
49	KLF3 (KLF transcription factor 3)	SID255357607	0.36	migration z between -2 and 2; enough cells	0.88	4592
50	PEA15 (proliferation and apoptosis adaptor protein 15)	SID255353735	0.96	migration z between -2 and 2; enough cells	0.99	4859
51	PI16 (peptidase inhibitor 16)	SID255364302	-0.87	migration z between -2 and 2; enough cells	0.66	6214
52	ZSCAN29 (zinc finger and SCAN domain containing 29)	SID255363266	-2.13 (active)	migration z below -2; enough cells	0.33	4164
53	TPH1 (tryptophan hydroxylase 1)	SID255352942	0.26	migration z between -2 and 2; enough cells	0.86	5970
54	SYT7 (synaptotagmin 7)	SID255354006	0.48	migration z between -2 and 2; enough cells	1.01	5999
55	CADM2 (cell adhesion molecule 2)	SID255364423	-0.34	migration z between -2 and 2; enough cells	0.8	5643
56	ABCA3 (ATP binding cassette subfamily A member 3)	SID255348121	-0.16	migration z between -2 and 2; enough cells	0.77	6287
57	ALKAL2 (ALK and LTK ligand 2)	SID255364819	-1.17	migration z between -2 and 2; enough cells	0.58	5446
58	DNLZ (DNL-type zinc finger)	SID255366188	0.03	migration z between -2 and 2; enough cells	0.9	5700
59	ZNF277 (zinc finger protein 277)	SID255355660	-1.52	migration z between -2 and 2; enough cells	0.5	6593
60	TCIRG1	SID255354986	-0.24	migration z between -2 and 2; enough cells	0.76	5880
61	PPM1G (protein phosphatase, Mg2+/Mn2+ dependent 1G)	SID255351729	1.38	migration z between -2 and 2; enough cells	1.07	5252
62	IL13 (interleukin 13)	SID255350477	-1.73	migration z between -2 and 2; enough cells	0.44	4102
63	STYXL1 (serine/threonine/tyrosine interacting like 1)	SID255357838	1.06	migration z between -2 and 2; enough cells	1.01	5244
64	ANAPC7 (anaphase promoting complex subunit 7)	SID255357715	2.01 (active)	migration z above 2; enough cells	1.41	5476
65	MORF4L2 (mortality factor 4 like 2)	SID255354435	0.55	migration z between -2 and 2; enough cells	1.02	5325
66	FAHD2A (fumarylacetoacetate hydrolase domain containing 2A)	SID255357406	-1.15	migration z between -2 and 2; enough cells	0.58	6166
67	IL25 (interleukin 25)	SID255360015	-1.75	migration z between -2 and 2; enough cells	0.43	3707
68	FXYD2 (FXYD domain containing ion transport regulator 2)	SID255348449	-2.18 (active)	migration z below -2; enough cells	0.38	4277
69	ERLEC1 (endoplasmic reticulum lectin 1)	SID255356994	-1.48	migration z between -2 and 2; enough cells	0.5	6678
70	LIMD2 (LIM domain containing 2)	SID255360811	-0.29	migration z between -2 and 2; enough cells	0.81	5472
71	RASSF10 (Ras association domain family member 10)	SID255366101	-0.28	migration z between -2 and 2; enough cells	0.81	6678
72	SSX6P (SSX family member 6, pseudogene)	SID255364614	1.81	migration z between -2 and 2; enough cells	1.36	6589
73	PRAMEF2 (PRAME family member 2)	SID255360095	1.45	migration z between -2 and 2; enough cells	1.26	5987
